According to patent publication US9169203B2, “Sulfoxide-based surfactants” (Novus International Inc., priority 2012, dated 2015):

Assay: Draves Wetting Test (ASTM D2281-68)
Format: physicochemical

| Compound | Time for skein to sink (Concentration 0.05%) | Time for skein to sink (Concentration 0.10%) | Time for skein to sink (Concentration 0.25%) | Time for skein to sink (Concentration 0.50%) |
| --- | --- | --- | --- | --- |
| CCCCCCOC(=O)C(O)CC[S+](C)[O-] (centres unmarked) [Example R6SO, hexyl 2-hydroxy-4-(methylsulfinyl)butanoate] | >24 h | >24 h | >24 h | ~6 h |
| CCCCCCCCOC(=O)C(O)CC[S+](C)[O-] (centres unmarked) [Example R8SO, octyl 2-hydroxy-4-(methylsulfinyl)butanoate] | >0.5 h | >0.5 h | 0.0014 h | <0.0014 h |
